Measurements reported in patent US20240299317A1, “Fenfluramine for Treatment of Conditions Associated with Spreading Depolarization” (ZOGENIX INTERNATIONAL LIMITED, priority 2021, published 2024).

Tested on: GABA spontaneous inhibitory postsynaptic currents
Assay: GABA spontaneous inhibitory postsynaptic currents (sIPSCs)
Format: cell-based
Settings: asenapine with added serotonin, separate experiment

## CN1CC2c3ccccc3Oc3ccc(Cl)cc3C2C1 (stereo not shown) [asenapine]
  spontaneous inhibitory postsynaptic currents of added serotonin: did reduce
